This is an account of results in patent EP4775225 (dated 2025).

A short description of the first series: general procedure: solution-phase peptide synthesis; HATU/DIEA. To be noted: conjugation step.
On to “(9H-fluoren-9-yl) methyl (((3R,4R,7R)-7-benzyl-3-(((S)-1-(3-methylbutanamido)-N,3-dimethylbutanamido)-3-methoxy-5-methylheptanoyl) pyrrolidin-2-yl)-4,9-dimethyl-5,8,18-trioxo-2,12,15-trioxo-6,9,17-triazapentadecan-19-yl) carbamate”, for which the conjugation yield turned out to be 71.0%.
“(9H-fluoren-9-yl) methyl ((3R,4R,7S,10R)-7-benzyl-3-((S)-1-((3R,4S,5S)-4-((S)-2-((S)-2-(dimethylamino)-3-methylbutanamido)-N,3-dimethylbutanamido)-3-methoxy-5-methylheptanoyl) pyrrolidin-2-yl)-4-methyl-5,8,16-trioxo-10-phenyl-2,13-dioxa-6,9,15-triazaheptan-17-yl) carbamate” registered a conjugation yield of 22.1%.
“N-(3R,4R,7S,22S)-7,22-dibenzyl-3-((S)-1-((3R,4S,5S)-4-((S)-pyrrolidin-2-yl)-4-methyl-5,8,18,21,24,27-hexaoxo-2,12,15-trioxo-6,9,17,20,23,26-hexaazacyclooctacosan-28-yl))-6-(2,5-dioxo-2,5-dihydro-1H-pyrrol-1-yl)hexanamide” yielded a conjugation yield of 79.1%.
Same read-out and setting: next, “(9H-fluoren-9-yl) methyl (2-((2R,3R)-3-(S)-1-(3R,4S,4S,5S)-4-(S)-2-((S)-2-(dimethylamino)-3-methylbutanamido)-3-methoxymethylbutenyl-methyl-methyl-(methyl) amino)-2-oxoethyl) carbamate”: 55.3%; “(9H-fluoren-9-yl) methyl ((3R,4R,7S)-7-benzyl-3-((S)-1-((3R,4S,5S)-4-((S)-2-((S)-2-(dimethylamino)-3-methylbutanamido)-N,3-dimethylbutanamido)-3-methoxy-5-methylheptanoyl) pyrrolidin-2-yl)-4-methyl-5,8,18-trioxo-2,15-dioxo-6,9,17-triazanonadecyl) carbamate”: 37.9%.
Still for that read-out and setting: for “N-((3R,4R,7S,22S)-7,22-dibenzyl-3-(S)-1-((3R,4S,5S)-4-(S) pyrrolidin-2-yl)-4-methyl-5,8,18,21,24,27-hexaoxo-2,15-dioxo-6,9,17,20,23,26-hexaazaoctacosan-28-yl)-6-(2,5-dioxo-2,5-dihydro-1H-pyrrol-1-yl)hexanamide” the value was 14.0%; for “(9H-fluoren-9-yl) methyl ((3R,4R,7R)-7-benzyl-3-((S)-1-((3R,4S,5S)-4-((S)-2-((S)-2-(dimethylamino)-3-methylbutanamido)-N,3-dimethylbutanamido)-3-methoxy-5-methylheptanoyl) pyrrolidin-2-yl)-4,10,10-trimethyl-5,8,16-trioxo-2,13-dioxo-6,9,15-triazaheptadecan-17-yl) carbamate”, 36.5%.

The series is the same for the next values; noted with them: late stage modification step.
In turn, “((S)-N-((3R,4S,55)-1-((S)-2-(((1R,2R)-3-((S)-1-((4-(aminomethyl)cyclohexyl) methyl) amino)-1-oxo-3-phenylpropan-2-yl) amino)-1-methoxy-2-methyl-3-oxopropyl) pyrrolidin-1-yl)-3-methoxy-5-methyl-1-oxoheptan-4-yl)-2-((S)-2-(dimethylamino)-3-methylbutanamido)-N,3-dimethylbutanamide” yielded a step yield of 72.3%.
“(S)-N-((3R,4S,5S)-1-((S)-2-((3R,4R,7S)-19-amino-7-benzyl-4-methyl-5,8,18-trioxo-2,15-dioxa-6,9,17-triazanonadecyl-3-yl) pyrrolidin-1-yl)-3-methoxy-5-methyl-1-oxoheptan-4-yl)-2-((S)-2-(dimethylamino)-3-methylbutanamido)-N,3-dimethylbutanamide” came in with a step yield of 67.8%.
In turn, “(S)-N-((3R,4S,5S)-1-((S)-2-(((1R,2R)-3-((S)-1-((5-aminopentyl) amino)-1-oxo-3-phenylpropan-2-yl) amino)-1-methoxy-2-methyl-3-oxopropyl) pyrrolidin-1-yl)-3-methoxy-5-methyl-1-oxoheptan-4-yl)-2-((S)-2-(dimethylamino)-3-methylbutanamido)-N,3-dimethylbutanamide” returned a step yield of 71.9%.
“tert-butyl ((3R,4R,7S)-7-benzyl-3-((S)-1-((3R,4S,5S)-4-((S)-2-[(S)-2-(dimethylamino)-3-methylbutanamido]-N,3-dimethylbutanamido)-3-methoxy-5-methylheptanoyl) pyrrolidin-2-yl)-4-methyl-5,8-dioxo-2,12-dioxo-6,9-diazatetradecan-14-yl) carbamate” gave a step yield of 98%.
The substance “(9H-fluoren-9-yl) methyl ((3R,4R,7S)-7-benzyl-3-((S)-1-((3R,4S,5S)-4-((S)-2-((S)-2-(dimethylamino)-3-methylbutanamido)-N,3-dimethylbutanamido)-3-methoxy-5-methylheptanoyl) pyrrolidin-2-yl)-4-methyl-5,8,18-trioxo-2,12,15-trioxo-6,9,17-triazacyclononadecyl) carbamate” gave a step yield of 58.0%.
